{"source": "PubChem BioAssay AID504467", "about": "(National Center for Advancing Translational Sciences (NCATS), 2011)", "note": "The whole screen tested about 330,000 compounds, of which about 7,700 (2.3%) were called active. The inconclusive results got no clear call from the source; some entries with a clear call stand among them for comparison. Calls follow the shape of the dose curve; as a rule, active = well fitted inhibition curve with a large enough effect; inconclusive = small, poorly fitted or top-dose-only effect, or effect the other way; inactive = flat fitted curve, though single readings scatter. A potency beside an inconclusive call is a rough fit, not a confirmed value. % is scaled to controls: 0 for no effect and ±100 for the full control effect; potency is read from the fitted curve at half-maximal effect."}
{"experiment": "qHTS screen for small molecules that inhibit ELG1-dependent DNA repair in human embryonic kidney (HEK293T) cells expressing luciferase-tagged ELG1; also: nearly all actives have a fitted effect of over 55% in size", "conditions": "HEK293T ELG1-luciferase reporter, luminescence, 16 h, DNA damage induced by 5-fluorouridine; activity change, negative = inhibition: at 46.1 µM (top of the series)", "outline": "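Step one: seed 2,000 cells per well. Step two: pin-transfer compound or DMSO alongside 5-fluorouridine. Step three: incubate 16 hr, 37 °C, 5% CO2. Step four: add ONE-Glo, wait 30 min, read luminescence.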"}
{"smiles": "COc1ccc(C(=O)/C=C/c2ccccc2F)c(OC(=O)c2ccc([N+](=O)[O-])cc2)c1", "Potency": "inconclusive: 23.1 µM [activator, partial curve]"}
{"smiles": "O=C(Nc1ccccc1Cl)OCc1cncs1", "Potency": "inconclusive: 23.1 µM [activator, partial curve]"}
{"smiles": "CCOc1ccc(NC(=O)CN(C)C(=O)c2ccc(=O)[nH]c2)cc1OCC", "Potency": "inconclusive: 7.3 µM [activator, partial curve]"}
{"smiles": "CCN1CCc2c(sc(NC(=O)C3COc4ccccc4O3)c2C(N)=O)C1", "note": "(configuration not stated)", "Potency": "inconclusive: 14.6 µM [activator, partial curve]"}
{"smiles": "O=C(NC1CCCCCC1)C1CC(=O)N(c2ccc(Cl)cc2)C1", "note": "(configuration not stated)", "activity change, negative = inhibition": "inactive: -8.94%"}
{"smiles": "C/C(=N/NC(=O)c1ccco1)c1ccc(Br)s1", "Potency": "inconclusive: 20.6 µM [activator, partial curve]"}
{"smiles": "O=C1NCCCC2c3c(cc(Br)c(O)c3Br)OC12N1CCOCC1", "note": "(configuration not stated)", "Potency": "inconclusive: 29.1 µM [activator, single point]"}
{"smiles": "c1ccc(COc2ccc(-c3csnn3)cc2)cc1", "Potency": "inconclusive: 11.6 µM [activator, partial curve]"}
{"smiles": "CCOC(=O)c1nnn(-c2ccc([N+](=O)[O-])cc2)c1C", "Potency": "inconclusive: 5.8 µM [activator, partial curve]"}
{"smiles": "CN=c1scc(C)n1/N=C/c1ccc(O)cc1", "Potency": "inconclusive: 3.66 µM [activator, full curve]"}
{"smiles": "CN(Cc1ccccc1)S(=O)(=O)c1ccc(Cl)c(C(=O)NCc2ccc3c(c2)OCO3)c1", "Potency": "inconclusive: 7.31 µM [inhibitor, partial curve]"}
{"smiles": "C=CC[C@@H](CC(=O)N(CCO)Cc1ccccc1)C(=O)N[C@H](COC(=O)[C@@H](CC=C)CC(=O)OC(C)(C)C)Cc1c[nH]c2ccccc12", "Potency": "active: 18.3 µM"}
{"smiles": "Cc1ccc(C)c(NC(=S)Nc2cccc3cnccc23)c1", "Potency": "inconclusive: 29.1 µM [inhibitor, single point]"}
{"smiles": "COc1ccc(CNC(=O)CN(C(=O)c2csnn2)c2ccc3c(c2)OCCO3)cc1", "Potency": "inconclusive: 18.3 µM [activator, single point]"}
{"smiles": "CC(=O)NC(c1ccccc1)c1cc([N+](=O)[O-])c2cccnc2c1O", "note": "(configuration not stated)", "Potency": "inconclusive: 6.51 µM [inhibitor, single point]"}
{"smiles": "Cc1ccc(C(=O)c2cc([N+](=O)[O-])ccc2N2CCCCC2)cc1C", "Potency": "inconclusive: 2.06 µM [inhibitor, partial curve, poor fit]"}
{"smiles": "COc1ccc(OC)c(C(=O)c2ccc(C(=O)N3CCN(Cc4csc(C)n4)CC3)cc2)c1", "Potency": "inconclusive: 18.3 µM [inhibitor, single point]"}
{"smiles": "O=C(CSc1nnc(-c2ccccn2)o1)Nc1ccccc1", "Potency": "inconclusive: 11.6 µM [activator, partial curve]"}
{"smiles": "CCSc1nsc(NC(=O)Nc2cccc(C(C)=O)c2)n1", "Potency": "inconclusive: 4.11 µM [inhibitor, partial curve, poor fit]"}
{"smiles": "Nc1ccccc1SC1CC(=O)N(Cc2ccccc2)C1=O", "note": "(configuration not stated)", "activity change, negative = inhibition": "inactive: 4.53%"}
{"smiles": "CCOC(=O)c1sc2nc(CC(=O)OC)nc(NCc3ccco3)c2c1C", "Potency": "inconclusive: 13 µM [inhibitor, partial curve]"}
{"smiles": "COC(=O)[C@@]1(Cc2ccc(OC)cc2)[C@H]2c3cc(C(=O)N4CCCC4)n(Cc4ccc(C)o4)c3C[C@H]2CN1C(=O)c1ccccc1", "Potency": "inconclusive: 29.1 µM [inhibitor, single point]"}
{"smiles": "CN1c2ccccc2Oc2nnc(Cl)cc21", "activity change, negative = inhibition": "inactive: 5.78%"}
{"smiles": "CCOc1ccccc1N1CCN(C(=O)c2ccc(S(=O)(=O)Nc3ccccc3)cc2)CC1", "Potency": "inconclusive: 25.9 µM [inhibitor, partial curve, poor fit]"}
{"smiles": "COc1cccc(NC(=O)C2CCC(CNC(=O)[C@@H]3Cc4ccccc4CN3)CC2)c1", "note": "(some centres not stated)", "activity change, negative = inhibition": "inactive: 5.84%"}
{"smiles": "CCOc1ccc2nc(S(N)(=O)=O)sc2c1", "Potency": "inconclusive: 14.6 µM [activator, partial curve]"}
{"smiles": "Cn1nnnc1SCCNCc1cc(Cl)ccc1OCc1ccccc1", "activity change, negative = inhibition": "inactive: -4.1%"}
{"smiles": "CCOc1ccc(S(=O)(=O)NCCC(=O)NC2=NCCS2)cc1", "activity change, negative = inhibition": "inactive: -24.6%"}
{"smiles": "Cc1ccc(Cl)c(N/C=C/C(=O)c2ccccc2)c1", "Potency": "inconclusive: 2.31 µM [activator, full curve]"}
{"smiles": "S=c1[nH]c(-c2ccccc2)cn1-c1ccccc1", "Potency": "inconclusive: 20.6 µM [activator, partial curve]"}
{"smiles": "O=C1C(NS(=O)(=O)c2cccs2)=C(N2CCN(Cc3ccccc3)CC2)C(=O)c2ccccc21", "Potency": "active: 23.1 µM"}
{"smiles": "COc1ccc(/C=N/Nc2nc(-c3cccc(S(=O)(=O)N4CCCC4)c3)cs2)cc1OC", "Potency": "inconclusive: 16.4 µM [inhibitor, partial curve]"}
{"smiles": "Cc1ccc(NC(=O)CN(C)S(=O)(=O)c2ccc3c(c2)n(C)c(=O)c(=O)n3C)c(C)c1", "activity change, negative = inhibition": "inactive: -2.54%"}
{"smiles": "O=C(Nc1ccc(N2CCOCC2)c(Cl)c1)c1ccc2c(c1)OCCO2", "Potency": "inconclusive: 20.6 µM [inhibitor, single point]"}
{"smiles": "O=C(CN1C(=O)/C(=C/c2ccccc2F)SC1=S)NC1C=CS(=O)(=O)C1", "note": "(configuration not stated)", "activity change, negative = inhibition": "inactive: 24.5%"}
{"smiles": "Cc1ccc(S(=O)(=O)N2CCCC(C(=O)NCc3ccco3)C2)cc1Cl", "note": "(configuration not stated)", "Potency": "inconclusive: 29.1 µM [inhibitor, partial curve]"}
{"smiles": "O=C(Nc1nc2ccc(F)cc2s1)C1CCCO1", "note": "(configuration not stated)", "Potency": "inconclusive: 3.55 µM [activator, partial curve, poor fit]"}
{"smiles": "CCCCN1CC(=O)N2[C@H](c3ccc(Cl)cc3)[C@@H]3C(=O)N(CC)C(=O)[C@@H]3[C@]2(C)C1=O", "Potency": "inconclusive: 0.291 µM [inhibitor, partial curve, poor fit]"}
{"smiles": "Cc1cc([N+](=O)[O-])nn1CC(=O)NNC(=S)Nc1ccc(Cl)cc1", "activity change, negative = inhibition": "inactive: -4.82%"}
{"smiles": "CC(=O)/C(N=Nc1ccc(C(=O)O)cc1)=C(\\C)O", "Potency": "inconclusive: 29.1 µM [activator, single point]"}
{"smiles": "COc1ccccc1C(O)(c1ccccc1)C(CN1CCOCC1)c1ccccc1", "note": "(configuration not stated)", "Potency": "inconclusive: 18.3 µM [inhibitor, single point]"}
{"smiles": "COc1ccc(C(=O)NC(=S)N2CCCCC2)cc1", "Potency": "inconclusive: 18.4 µM [activator, partial curve]"}
